The entries are a selection whose mix differs from that of the whole data set. At the low end of the ranking, values are background and their order means little.

This assay concerns the target SPI1 (UniProt P17947). As to the kind of experiment: DAPPL (digital affinity profiling via proximity ligation, sequencing). Particulars: 10 mM Tris-HCl pH 7.5, 50 mM NaCl, 1 mM DTT, 4% glycerol, room temperature, 30 min; GST-TFs on glutathione beads, 16-mer random dsDNA library, 0.1% …; high values mean tight binding; double strand, one strand shown; scale: fold enrichment (6-mer frequency, TF over GST control).
For GAGAAC, the binding signal amounted to 0.391. GTTAGA showed a binding signal of 0.776. The sequence GATCGG came in with a binding signal of 0.439. For the sequence AGGCAA, the binding signal came to 0.683. In the case of GCAGTA, the binding signal turned out to be 0.841. In turn, TCGGTC yielded a binding signal of 0.573. In turn, GGCGCA showed a binding signal of 0.601. As for TCGTGA, the figure is 0.306; as for GCTTGA, 0.806; as for GGCGTG, 0.347. Sequence TCAGTC gave a binding signal of 0.62. With CCCAGG the figure was 0.682. The sequence GTGTGT yielded a binding signal of 0.528. For the sequence GTCTGC, the binding signal stood at 0.903. Take AAGAGA: the binding signal stood at 0.782. In turn, ATCAGT had a binding signal of 0.779. For the sequence GGGCCG, the binding signal was determined as 0.627. Take CCGTGA: the binding signal amounted to 0.191. As to GTGAGG, the binding signal was determined as 0.279.

In turn, TCGGCC showed a binding signal of 0.733. The sequence GTTGAG gave a binding signal of 0.647. In turn, GCGCTA gave a binding signal of 0.854.

Consider CGCATA, for which the binding signal amounted to 0.73. As for GGTAGG, the figure is 0.545; as for GATTGT, 0.775. In turn, CCAGGG yielded a binding signal of 0.535. CACCAG returned a binding signal of 0.669. Turning to GCGCGG, the binding signal came to 0.835. As for GATCCG, the binding signal was determined as 0.916. In turn, GGGTAA returned a binding signal of 0.819. CATGGA: the binding signal came to 0.868. With GAGTCT the figure was 0.362.

Consider TGAGTG, for which the binding signal came out at 0.425. On to CGTCGT, for which the binding signal is 0.872. TAGGGA showed a binding signal of 1.05. GCCCGT yielded a binding signal of 0.625. Sequence GGGGGT gave a binding signal of 0.491. The sequence ACGGGA returned a binding signal of 0.639.

AGCCGA: the binding signal stood at 0.776.

Sequence GTGCGA gave a binding signal of 0.927.
